In article PMC9663306 one finds binding data, which are given here for two molecules.

Protein sequences, listed by entry. Tags and fused reporters are not part of them.
UniProt Q8CJ61: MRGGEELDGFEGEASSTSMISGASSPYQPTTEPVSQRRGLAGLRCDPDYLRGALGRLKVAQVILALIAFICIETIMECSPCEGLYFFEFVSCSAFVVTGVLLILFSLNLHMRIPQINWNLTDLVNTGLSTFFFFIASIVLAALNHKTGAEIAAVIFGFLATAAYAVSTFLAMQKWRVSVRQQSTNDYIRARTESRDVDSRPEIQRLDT

Read-outs that look alike come from different tables or passages of the source. No constants are given. Whether binding was seen depends on the method and setting. In cells and extracts the contact can be indirect. These calls come from enrichment with a bait or labelling near it, and not all partners need be listed. Tags and fused reporters may be left off the sequences shown.

Experiment [1] has as its target T1, SF-IL-17RC (murine IL-17RC with C-terminal 2xStrep-3xFlag tag), in ST2 cells (mouse) (UniProt Q8K4C2).
T1 sequence (chain, N-glycosylated (100 kDa and 150 kDa forms)): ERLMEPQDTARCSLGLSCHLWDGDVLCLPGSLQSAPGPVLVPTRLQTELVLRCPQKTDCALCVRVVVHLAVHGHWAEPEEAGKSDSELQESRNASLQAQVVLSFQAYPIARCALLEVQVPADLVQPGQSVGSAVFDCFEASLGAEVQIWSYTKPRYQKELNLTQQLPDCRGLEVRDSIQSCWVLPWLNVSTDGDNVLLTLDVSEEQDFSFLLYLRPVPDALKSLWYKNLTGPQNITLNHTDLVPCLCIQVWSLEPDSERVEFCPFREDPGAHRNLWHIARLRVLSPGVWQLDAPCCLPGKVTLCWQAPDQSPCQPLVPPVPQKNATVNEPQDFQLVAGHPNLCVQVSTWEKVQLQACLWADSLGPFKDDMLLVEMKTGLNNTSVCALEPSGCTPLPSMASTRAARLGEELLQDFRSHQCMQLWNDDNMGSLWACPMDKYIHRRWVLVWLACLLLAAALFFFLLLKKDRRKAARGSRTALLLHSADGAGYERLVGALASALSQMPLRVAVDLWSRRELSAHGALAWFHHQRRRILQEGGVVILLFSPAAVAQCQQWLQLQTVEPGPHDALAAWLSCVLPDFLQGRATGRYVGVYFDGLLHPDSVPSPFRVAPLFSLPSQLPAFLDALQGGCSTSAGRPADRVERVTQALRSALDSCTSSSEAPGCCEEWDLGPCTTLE
Put plainly: affinity purification with mass spectrometry; ST2 cells expressing SF-IL-17RC (control SF-GFP), 1% DDM lysate; tandem purification (anti-FLAG M2 agarose, Strep-Tactin Sepharose); iBAQ quantification, three experiments.

Experiment [2] deals with T2, Strep-Flag-tagged mouse IL-17A (mouse) (UniProt Q62386).
T2 sequence: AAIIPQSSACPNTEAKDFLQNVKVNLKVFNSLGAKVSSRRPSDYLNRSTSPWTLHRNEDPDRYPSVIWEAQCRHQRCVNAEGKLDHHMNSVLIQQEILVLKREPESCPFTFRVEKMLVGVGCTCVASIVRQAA
Put plainly: affinity purification with mass spectrometry; ST2 cells stimulated with SF-IL-17A (500 ng/ml, 15 min), lysed in 1% DDM; tandem purification of SF-IL-17A (anti-FLAG M2 agarose, 3xFlag peptide elution, Strep-Tactin Sepharose); iBAQ quantification, 13 experiments; control: SF-IL-17A added after lysis; only the target purified.

Experiment [3] concerns the target T2, Strep-Flag-tagged mouse IL-17A (mouse). The experiment is described as above. This is another data set of the same source.

As to “CMTM4 (endogenous, mouse ST2 cells) (from UniProt Q8CJ61 1-208)”, the binding result in experiment [1] and in experiment [2] was “binds” throughout.

B1: IL-17RC (endogenous, mouse ST2 cells) (receptor, UniProt Q8K4C2 22-698)
chain: T1 sequence (chain, N-glycosylated (100 kDa and 150 kDa forms))
modifications: glycosylated (forms of approximately 100 kDa and 150 kDa)
On to B1, for which the binding entry in experiment [3] is listed as “binds”.
